The other results are listed elsewhere or left out. The data scatter; read single values as rough.
Compound: ClCC(=O)N[C@@H]1CCCc2ccccc12
Assay: log2 mean competition ratio of IA-DTB cysteine labelling (DMSO/compound) (log2 ratio); higher = stronger cysteine engagement by compound
Conditions: 50 µM; treatment time: 4 h; cell line lysate: HEK293T
Method: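 IA-DTB competitive cysteine chemoproteomics in HEK293T RIPA lysate. Lysates were treated with compound 29 or 30 at 50 or 200 µM for 4 h, then IA-DTB (500 µM, 1 h), trypsin-digested, NeutrAvidin-enriched and analysed by diaPASEF. Competition ratio = intensity DMSO / intensity compound (n=4 treated, n=64 DMSO); binding: mean log2 CR ≥ 1 and p ≤ 0.05 plus QC filters. Target is the cysteine site.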

The chains behind the UniProt entries cited, without tags or fusion partners. Where a name states a change or a piece, a line headed by the entry shows the natural chain unless it says otherwise.
UniProt Q9BYG5: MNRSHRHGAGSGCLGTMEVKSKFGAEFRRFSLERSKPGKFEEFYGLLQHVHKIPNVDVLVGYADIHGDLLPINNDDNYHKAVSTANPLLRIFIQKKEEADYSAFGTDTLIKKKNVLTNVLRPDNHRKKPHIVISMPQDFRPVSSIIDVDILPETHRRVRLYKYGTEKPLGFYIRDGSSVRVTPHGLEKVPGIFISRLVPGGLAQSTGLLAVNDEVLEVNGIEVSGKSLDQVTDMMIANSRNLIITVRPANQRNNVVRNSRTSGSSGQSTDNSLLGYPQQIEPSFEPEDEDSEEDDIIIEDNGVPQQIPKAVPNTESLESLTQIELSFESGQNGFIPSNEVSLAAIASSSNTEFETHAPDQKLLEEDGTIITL
UniProt Q13371: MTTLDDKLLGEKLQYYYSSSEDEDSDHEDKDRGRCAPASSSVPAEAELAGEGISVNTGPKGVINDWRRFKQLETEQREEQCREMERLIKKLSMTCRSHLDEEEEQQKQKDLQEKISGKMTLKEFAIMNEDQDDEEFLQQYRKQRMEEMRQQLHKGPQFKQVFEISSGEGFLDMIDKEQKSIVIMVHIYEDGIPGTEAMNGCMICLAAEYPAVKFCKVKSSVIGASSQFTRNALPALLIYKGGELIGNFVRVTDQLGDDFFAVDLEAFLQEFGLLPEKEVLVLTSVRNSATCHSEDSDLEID
UniProt Q16822, whole entry, looked up: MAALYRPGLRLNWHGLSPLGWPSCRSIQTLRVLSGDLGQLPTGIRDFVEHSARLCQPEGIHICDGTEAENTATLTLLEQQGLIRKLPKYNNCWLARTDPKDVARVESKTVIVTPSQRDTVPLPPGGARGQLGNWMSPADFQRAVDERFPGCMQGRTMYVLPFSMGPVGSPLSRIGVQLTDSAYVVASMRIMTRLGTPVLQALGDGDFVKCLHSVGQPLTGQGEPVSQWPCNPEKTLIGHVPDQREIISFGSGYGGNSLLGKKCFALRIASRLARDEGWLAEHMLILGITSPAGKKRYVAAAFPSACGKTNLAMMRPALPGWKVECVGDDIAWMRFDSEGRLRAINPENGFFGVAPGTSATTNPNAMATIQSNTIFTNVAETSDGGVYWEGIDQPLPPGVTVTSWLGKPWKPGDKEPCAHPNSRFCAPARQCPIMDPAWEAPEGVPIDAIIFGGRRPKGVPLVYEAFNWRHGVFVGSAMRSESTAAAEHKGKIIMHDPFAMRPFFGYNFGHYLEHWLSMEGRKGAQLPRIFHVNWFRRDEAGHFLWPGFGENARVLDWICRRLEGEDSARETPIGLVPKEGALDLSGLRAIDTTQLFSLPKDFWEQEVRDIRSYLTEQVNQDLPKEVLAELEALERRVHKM
UniProt Q15154: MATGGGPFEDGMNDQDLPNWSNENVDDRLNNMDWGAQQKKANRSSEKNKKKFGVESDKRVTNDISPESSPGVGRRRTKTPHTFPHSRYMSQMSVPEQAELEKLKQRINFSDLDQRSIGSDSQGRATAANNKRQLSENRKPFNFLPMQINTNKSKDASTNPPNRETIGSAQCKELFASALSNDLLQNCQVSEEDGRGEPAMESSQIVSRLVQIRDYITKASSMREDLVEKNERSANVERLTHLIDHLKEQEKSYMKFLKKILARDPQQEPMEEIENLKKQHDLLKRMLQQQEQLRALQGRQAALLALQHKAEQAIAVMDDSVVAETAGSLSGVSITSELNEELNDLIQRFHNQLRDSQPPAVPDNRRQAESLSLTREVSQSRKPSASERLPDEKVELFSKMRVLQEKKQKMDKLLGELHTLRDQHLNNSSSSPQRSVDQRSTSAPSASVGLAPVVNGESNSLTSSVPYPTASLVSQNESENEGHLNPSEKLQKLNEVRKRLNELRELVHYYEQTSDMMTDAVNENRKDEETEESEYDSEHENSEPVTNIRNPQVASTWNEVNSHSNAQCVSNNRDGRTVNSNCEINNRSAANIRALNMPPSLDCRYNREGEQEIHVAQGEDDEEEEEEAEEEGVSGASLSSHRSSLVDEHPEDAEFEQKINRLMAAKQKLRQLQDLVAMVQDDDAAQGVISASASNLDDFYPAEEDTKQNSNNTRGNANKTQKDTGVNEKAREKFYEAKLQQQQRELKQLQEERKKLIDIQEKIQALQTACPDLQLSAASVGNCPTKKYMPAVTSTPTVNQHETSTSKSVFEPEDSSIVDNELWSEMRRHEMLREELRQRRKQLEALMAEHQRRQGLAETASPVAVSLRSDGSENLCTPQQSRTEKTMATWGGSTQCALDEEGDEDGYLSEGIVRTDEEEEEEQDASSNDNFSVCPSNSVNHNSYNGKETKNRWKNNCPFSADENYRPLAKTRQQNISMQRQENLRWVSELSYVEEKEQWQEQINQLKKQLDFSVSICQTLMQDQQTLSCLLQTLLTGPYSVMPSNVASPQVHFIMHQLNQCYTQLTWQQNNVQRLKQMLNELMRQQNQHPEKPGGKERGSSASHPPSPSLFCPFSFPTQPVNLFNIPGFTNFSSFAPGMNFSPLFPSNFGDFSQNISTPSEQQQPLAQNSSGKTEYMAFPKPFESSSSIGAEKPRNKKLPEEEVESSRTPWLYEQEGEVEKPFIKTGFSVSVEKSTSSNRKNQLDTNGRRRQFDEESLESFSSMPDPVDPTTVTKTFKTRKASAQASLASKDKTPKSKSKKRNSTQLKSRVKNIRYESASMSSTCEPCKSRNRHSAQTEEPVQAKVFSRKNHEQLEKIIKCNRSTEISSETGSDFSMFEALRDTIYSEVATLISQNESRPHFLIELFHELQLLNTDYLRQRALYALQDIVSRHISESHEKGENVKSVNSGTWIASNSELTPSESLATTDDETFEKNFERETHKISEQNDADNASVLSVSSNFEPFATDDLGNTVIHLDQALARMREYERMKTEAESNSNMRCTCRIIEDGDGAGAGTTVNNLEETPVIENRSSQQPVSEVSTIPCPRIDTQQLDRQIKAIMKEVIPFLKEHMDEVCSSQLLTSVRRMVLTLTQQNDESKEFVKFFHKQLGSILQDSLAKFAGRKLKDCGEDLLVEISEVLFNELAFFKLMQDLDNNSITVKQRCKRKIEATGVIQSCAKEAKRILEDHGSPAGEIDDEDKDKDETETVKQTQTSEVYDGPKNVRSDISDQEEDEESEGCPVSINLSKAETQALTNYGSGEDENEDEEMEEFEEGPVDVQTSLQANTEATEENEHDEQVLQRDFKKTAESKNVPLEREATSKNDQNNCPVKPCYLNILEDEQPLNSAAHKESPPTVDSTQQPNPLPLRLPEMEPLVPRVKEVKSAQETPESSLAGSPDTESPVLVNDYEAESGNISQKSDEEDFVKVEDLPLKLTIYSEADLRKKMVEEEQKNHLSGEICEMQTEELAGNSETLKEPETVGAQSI
UniProt Q8IXK0: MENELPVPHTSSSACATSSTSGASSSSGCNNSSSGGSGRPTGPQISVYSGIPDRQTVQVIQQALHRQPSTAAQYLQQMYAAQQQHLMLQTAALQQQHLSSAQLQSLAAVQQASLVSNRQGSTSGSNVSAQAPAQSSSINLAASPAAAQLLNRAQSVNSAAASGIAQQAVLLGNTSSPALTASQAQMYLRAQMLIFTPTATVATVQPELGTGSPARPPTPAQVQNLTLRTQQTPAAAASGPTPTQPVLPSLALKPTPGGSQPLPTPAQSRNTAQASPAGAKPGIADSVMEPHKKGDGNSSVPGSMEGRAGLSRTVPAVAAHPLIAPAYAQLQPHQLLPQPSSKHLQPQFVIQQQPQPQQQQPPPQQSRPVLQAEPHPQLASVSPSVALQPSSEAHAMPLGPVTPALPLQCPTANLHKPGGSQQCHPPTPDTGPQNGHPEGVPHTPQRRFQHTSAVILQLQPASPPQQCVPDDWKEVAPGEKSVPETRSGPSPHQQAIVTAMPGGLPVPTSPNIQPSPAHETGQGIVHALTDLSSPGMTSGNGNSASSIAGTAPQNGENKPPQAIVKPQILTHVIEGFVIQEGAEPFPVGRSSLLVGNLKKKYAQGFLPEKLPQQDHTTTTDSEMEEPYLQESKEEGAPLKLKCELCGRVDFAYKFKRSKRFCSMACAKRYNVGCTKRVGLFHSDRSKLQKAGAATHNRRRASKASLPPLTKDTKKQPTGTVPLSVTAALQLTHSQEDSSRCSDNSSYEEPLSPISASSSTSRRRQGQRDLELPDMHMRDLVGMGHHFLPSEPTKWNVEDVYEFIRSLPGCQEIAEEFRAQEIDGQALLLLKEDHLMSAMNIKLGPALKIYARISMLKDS
UniProt O60825: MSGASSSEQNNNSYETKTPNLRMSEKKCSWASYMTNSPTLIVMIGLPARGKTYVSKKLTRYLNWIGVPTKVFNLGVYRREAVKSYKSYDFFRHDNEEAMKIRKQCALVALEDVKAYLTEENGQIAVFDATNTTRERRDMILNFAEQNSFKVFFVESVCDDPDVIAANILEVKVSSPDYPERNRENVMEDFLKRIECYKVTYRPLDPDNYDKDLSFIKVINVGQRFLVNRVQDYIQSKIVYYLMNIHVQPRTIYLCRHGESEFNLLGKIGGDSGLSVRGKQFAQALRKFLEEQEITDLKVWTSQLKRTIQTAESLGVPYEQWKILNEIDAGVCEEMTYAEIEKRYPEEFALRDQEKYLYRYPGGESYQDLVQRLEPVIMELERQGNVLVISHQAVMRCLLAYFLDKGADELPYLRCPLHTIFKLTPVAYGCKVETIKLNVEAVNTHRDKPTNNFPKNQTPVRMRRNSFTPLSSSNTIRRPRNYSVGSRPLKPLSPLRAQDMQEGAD
UniProt Q14690: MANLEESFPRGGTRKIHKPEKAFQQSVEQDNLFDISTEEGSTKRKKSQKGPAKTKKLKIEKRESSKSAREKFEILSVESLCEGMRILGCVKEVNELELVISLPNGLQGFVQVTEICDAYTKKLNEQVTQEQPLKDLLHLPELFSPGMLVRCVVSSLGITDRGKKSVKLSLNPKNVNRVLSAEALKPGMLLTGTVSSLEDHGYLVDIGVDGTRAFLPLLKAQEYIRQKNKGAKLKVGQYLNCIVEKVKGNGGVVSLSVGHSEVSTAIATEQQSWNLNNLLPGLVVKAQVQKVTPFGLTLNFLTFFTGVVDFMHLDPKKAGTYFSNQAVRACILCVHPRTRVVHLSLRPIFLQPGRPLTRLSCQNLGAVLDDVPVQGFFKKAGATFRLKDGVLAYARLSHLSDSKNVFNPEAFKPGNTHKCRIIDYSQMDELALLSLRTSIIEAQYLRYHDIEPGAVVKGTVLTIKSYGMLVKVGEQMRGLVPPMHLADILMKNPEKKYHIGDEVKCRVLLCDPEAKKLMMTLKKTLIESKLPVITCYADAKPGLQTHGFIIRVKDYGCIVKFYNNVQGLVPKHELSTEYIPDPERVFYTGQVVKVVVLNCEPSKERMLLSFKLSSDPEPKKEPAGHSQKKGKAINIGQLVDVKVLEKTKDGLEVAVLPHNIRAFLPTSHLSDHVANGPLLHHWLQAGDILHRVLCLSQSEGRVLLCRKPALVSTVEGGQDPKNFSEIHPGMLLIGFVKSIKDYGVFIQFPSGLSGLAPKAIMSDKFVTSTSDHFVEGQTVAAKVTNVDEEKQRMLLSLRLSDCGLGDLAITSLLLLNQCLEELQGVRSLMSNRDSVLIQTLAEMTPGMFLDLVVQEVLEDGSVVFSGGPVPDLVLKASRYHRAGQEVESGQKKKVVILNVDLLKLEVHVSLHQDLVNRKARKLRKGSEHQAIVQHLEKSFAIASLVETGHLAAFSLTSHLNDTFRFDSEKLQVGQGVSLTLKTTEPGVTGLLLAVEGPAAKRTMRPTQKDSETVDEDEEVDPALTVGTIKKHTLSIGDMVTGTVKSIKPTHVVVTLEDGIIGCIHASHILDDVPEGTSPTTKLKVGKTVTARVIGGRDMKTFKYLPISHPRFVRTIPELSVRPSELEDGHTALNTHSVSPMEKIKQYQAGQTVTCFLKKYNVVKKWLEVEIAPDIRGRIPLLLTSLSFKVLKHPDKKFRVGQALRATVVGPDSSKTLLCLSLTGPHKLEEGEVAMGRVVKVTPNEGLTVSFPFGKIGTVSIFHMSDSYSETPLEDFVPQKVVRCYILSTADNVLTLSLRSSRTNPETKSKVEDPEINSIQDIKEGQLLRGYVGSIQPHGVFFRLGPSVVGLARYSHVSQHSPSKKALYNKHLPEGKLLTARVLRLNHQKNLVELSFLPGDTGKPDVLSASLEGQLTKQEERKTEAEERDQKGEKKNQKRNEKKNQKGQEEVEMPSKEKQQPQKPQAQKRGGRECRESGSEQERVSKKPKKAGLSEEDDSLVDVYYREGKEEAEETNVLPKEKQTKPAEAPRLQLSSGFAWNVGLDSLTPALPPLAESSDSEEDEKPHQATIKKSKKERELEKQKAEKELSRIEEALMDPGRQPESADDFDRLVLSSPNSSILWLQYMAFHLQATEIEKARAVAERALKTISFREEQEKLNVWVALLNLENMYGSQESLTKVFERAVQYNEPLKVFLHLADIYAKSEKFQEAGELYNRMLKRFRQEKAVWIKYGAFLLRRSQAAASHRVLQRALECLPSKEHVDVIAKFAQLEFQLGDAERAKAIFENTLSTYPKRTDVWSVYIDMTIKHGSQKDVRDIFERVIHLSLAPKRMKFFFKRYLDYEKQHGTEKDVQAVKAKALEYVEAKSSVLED

| Target | log2 mean competition ratio |
| --- | --- |
| PDXDC1 C135 (UniProt Q6P996) | 0.334 |
| PGM2L1 C348 (UniProt Q6PCE3) | -0.174 |
| PARD6B C13 (UniProt Q9BYG5) | 0.06 |
| PC C622 (UniProt P11498) | -0.0606 |
| PDCL C291 (UniProt Q13371) | 0.14 |
| PCK2 C151 (UniProt Q16822) | -0.094 |
| PDLIM5 C479 (UniProt Q96HC4) | -0.154 |
| PCM1 C1717 (UniProt Q15154) | 0.127 |
| PARP2 C288 (UniProt Q9UGN5) | -0.166 |
| PAXIP1 C933 (UniProt Q6ZW49) | -0.38 |
| PDK1 C71 | -0.339 |
| PHC2 C673 (UniProt Q8IXK0) | -0.0392 |
| PALLD C1319 (UniProt Q8WX93) | 0.00566 |
| PDE4A C218 (UniProt P27815) | -0.196 |
| PDK2 C392 (UniProt Q15119) | 0.281 |
| PER1 C368 (UniProt O15534) | -0.168 |
| PANK4 C513 (UniProt Q9NVE7) | 0.0119 |
| PFKFB2 C105 (UniProt O60825) | -0.0909 |
| PEX6 C309 (UniProt Q13608) | -0.0498 |
| PDCD11 C599 (UniProt Q14690) | -0.152 |

Same assay, conditions: 200 µM; treatment time: 4 h; cell line lysate: HEK293T

| Target | log2 mean competition ratio |
| --- | --- |
| PDXDC1 C135 (UniProt Q6P996) | -0.227 |
| PGM2L1 C348 (UniProt Q6PCE3) | -0.08 |
| PARD6B C13 (UniProt Q9BYG5) | 0.0639 |
| PC C622 (UniProt P11498) | 0.0519 |
| PDCL C291 (UniProt Q13371) | -0.27 |
| PCK2 C151 (UniProt Q16822) | 0.425 |
| PDLIM5 C479 (UniProt Q96HC4) | -0.197 |
| PCM1 C1717 (UniProt Q15154) | 0.0425 |
| PARP2 C288 (UniProt Q9UGN5) | 0.00279 |
| PAXIP1 C933 (UniProt Q6ZW49) | -0.192 |
| PDK1 C71 | 0.221 |
| PHC2 C673 (UniProt Q8IXK0) | 0.034 |
| PALLD C1319 (UniProt Q8WX93) | -0.351 |
| PDE4A C218 (UniProt P27815) | 0.245 |
| PDK2 C392 (UniProt Q15119) | 0.269 |
| PER1 C368 (UniProt O15534) | 0.422 |
| PANK4 C513 (UniProt Q9NVE7) | -0.0228 |
| PFKFB2 C105 (UniProt O60825) | -0.0267 |
| PEX6 C309 (UniProt Q13608) | -0.317 |
| PDCD11 C599 (UniProt Q14690) | 0.189 |

Source: the supplement of paper PMC11732987, “Enantioselective OTUD7B fragment discovery through chemoproteomics screening and high-throughput optimisation” (Communications Chemistry, 2025)
